# In article PMC2824752:
# Results are given in words; binding and its absence hold for the method and conditions named. A result given as binding can be weak or reduced; the word gives no strength.
# Target: T1, Anaplasma phagocytophilum VirD4 (Anaplasma phagocytophilum) (UniProt Q8RPL3)
# T1 sequence: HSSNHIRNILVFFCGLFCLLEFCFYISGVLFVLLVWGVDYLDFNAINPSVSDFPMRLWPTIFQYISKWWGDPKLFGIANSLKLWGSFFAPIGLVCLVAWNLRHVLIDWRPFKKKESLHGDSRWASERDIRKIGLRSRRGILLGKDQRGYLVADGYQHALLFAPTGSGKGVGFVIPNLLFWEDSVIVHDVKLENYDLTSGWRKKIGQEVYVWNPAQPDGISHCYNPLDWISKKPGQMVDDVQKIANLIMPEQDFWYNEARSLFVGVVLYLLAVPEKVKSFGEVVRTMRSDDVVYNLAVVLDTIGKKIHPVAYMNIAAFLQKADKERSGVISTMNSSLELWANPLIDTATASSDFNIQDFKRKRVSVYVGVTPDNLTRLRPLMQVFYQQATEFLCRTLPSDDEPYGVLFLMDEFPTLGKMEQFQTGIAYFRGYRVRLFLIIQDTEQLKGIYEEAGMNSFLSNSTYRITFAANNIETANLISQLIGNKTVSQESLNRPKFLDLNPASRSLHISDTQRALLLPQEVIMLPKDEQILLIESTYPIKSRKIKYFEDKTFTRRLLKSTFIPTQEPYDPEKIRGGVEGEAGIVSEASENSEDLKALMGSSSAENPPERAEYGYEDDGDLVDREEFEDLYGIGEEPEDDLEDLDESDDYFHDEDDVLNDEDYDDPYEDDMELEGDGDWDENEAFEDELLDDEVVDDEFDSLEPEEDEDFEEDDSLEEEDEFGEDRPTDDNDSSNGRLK
# Experiment: two-hybrid; bacterial two-hybrid (BacterioMatch II); bait pBT-VirD4, prey pTRG random genomic DNA library of A. phagocytophilum, in E. coli reporter cells; growth on minimal medium with 5 mM 3-AT for 40 h (24 h at 37°C, then 16 h at room temperature), validated on dual selective medium with 3-AT and streptomycin
substance,measurement,value
"Anaplasma phagocytophilum VirB11, residues 210-332 (domain or fragment)",binding,binds
